Data as given in the supplement of paper PMC10735217.
Some of the results follow. Single values are uncertain here, since repeats match poorly.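 In a drug-repurposing library screen, luminescence reads luciferase driven by eight TEAD-binding elements, stably integrated into human kidney-derived cells. Compounds scoring over five robust Z scores above the plate mean are called hits.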

Tested on: HEK293A TEAD-LUC reporter
Experiment: TEAD-luciferase reporter activity (YAP activation), robust Z score vs plate; higher = stronger YAP/TEAD activation
Conditions: 24 h

Row | SMILES | TEAD-luciferase reporter activity (compound concentration: 200 nM) | TEAD-luciferase reporter activity (compound concentration: 10 uM) | TEAD-luciferase reporter activity (compound concentration: 2 uM)
1 | COc1cc2c(cc1OC)C(=O)C(CC1CCN(Cc3ccccc3)CC1)C2 (centres undefined) [Donepezil] | inactive: -1.95 | inactive: -1.09 | –
2 | C[C@@H](Oc1cc(-n2cnc3ccc(CN4CCN(C)CC4)cc32)sc1C(N)=O)c1ccccc1C(F)(F)F | inactive: -1.54 | inactive: -1.39 | inactive: -0.889
3 | CNc1ccc(CN2CCC(OC(=O)NC(c3ccccc3)c3ccccc3)CC2)cc1 | inactive: -1.17 | inactive: 2.24 | inactive: -1.54
4 | O=C(O)[C@H]1C[C@@H](CP(=O)(O)O)CCN1 | inactive: -1.58 | inactive: 0.772 | –
5 | O=C(O)c1ccc(/C=C2\SC(=S)N(c3cccc(C(F)(F)F)c3)C2=O)cc1 | inactive: -0.0417 | inactive: 2.45 | inactive: -1.77
6 | CCCCCCCCCCCCCCOc1ccc(C(=O)OCC(=O)N(C)CC(=O)OCC)o1 [Olumacostat glasaretil] | inactive: -1.89 | inactive: 1.35 | inactive: 0.266
7 | CCCCCCCCCCCC(N=O)c1cc(C)ccc1O (centres undefined) | inactive: -0.87 | inactive: -1.93 | inactive: 3.03
8 | O=C(Nc1nc(=O)n(Cc2ccc(Cl)cc2)s1)c1ccc(Cl)cc1 | inactive: 0.047 | inactive: -0.483 | –
9 | NC(=O)NCCCC(N)C(=O)O [L-citrulline, Asklepion] | inactive: 0.229 | inactive: 0.781 | –
10 | O=C(CN1N=C(C2CCCCC2)c2ccccc2N(CC(=O)C2CCCC2)C1=O)Nc1cccc(-c2nc(=O)o[nH]2)c1 | inactive: -0.903 | inactive: 0.255 | inactive: 0.625
11 | CC(C)CCN1CCC2(CC1)NCc1ccccc1NC2=O | inactive: -0.1 | inactive: 0.369 | –
12 | Cc1cc(Oc2c(C3CC3)nn(CS(C)(=O)=O)c2C)cc(C)c1C#N | inactive: -0.0377 | inactive: -0.662 | inactive: 0.185
13 | CC(C)n1nc(-c2ccc3oc(N)nc3c2)c2c(N)ncnc21 [Sapanisertib] | – | – | inactive: -1.96
14 | CC(C)n1nc(-c2ccc3oc(N)nc3c2)c2c(N)ncnc21 | inactive: -0.508 | inactive: -1.85 | –
15 | CCCCOCCOc1ccc(-c2ccc3c(c2)C=C(C(=O)Nc2ccc([S@@+]([O-])Cc4cncn4CCC)cc2)CCCN3CC(C)C)cc1 [Cenicriviroc mesilate] | inactive: 0.194 | inactive: 2.19 | inactive: -0.271
16 | N[C@H](C(=O)O)[C@H](O)c1ccc(O)c(O)c1 | inactive: 0.86 | inactive: -1.32 | –
17 | N[C@H](C(=O)O)[C@H](O)c1ccc(O)c(O)c1 [droxidopa] | – | – | inactive: -2.88
18 | CC1(C)Cc2c(-c3ccccc3)c(-c3ccc(Cl)cc3)c(CC(=O)O)n2C1 [licofelone] | inactive: -1.47 | inactive: 3.31 | inactive: -0.534
19 | CN(C)/N=N/c1[nH]cnc1C(N)=O [Dacarbazine] | inactive: -0.00391 | inactive: -0.367 | inactive: -2.37
20 | CC(C)c1nc(-c2ccccc2)cc(-c2ccc(F)cc2)c1/C=C/[C@@H]1C[C@@H](O)CC(=O)O1 | inactive: -0.4 | inactive: -2.09 | inactive: -1.58

Laid out differently: results already given.
Row	SMILES	TEAD-luciferase reporter activity (compound concentration: 200 nM)	TEAD-luciferase reporter activity (compound concentration: 10 uM)	TEAD-luciferase reporter activity (compound concentration: 2 uM)
15	CCCCOCCOc1ccc(-c2ccc3c(c2)C=C(C(=O)Nc2ccc([S@@+]([O-])Cc4cncn4CCC)cc2)CCCN3CC(C)C)cc1 [Cenicriviroc mesilate]	inactive: 0.194	inactive: 2.19	inactive: -0.271
16	N[C@H](C(=O)O)[C@H](O)c1ccc(O)c(O)c1	inactive: 0.86	inactive: -1.32	–
